Test results taken from patent US8999889B2, “Substituted ketonic isoxazoline compounds and derivatives for combating animal pests” (BASF SE, priority 2010, dated 2015).
Some entries share one result that the patent states for a list of compounds.

Assays:
Type in all cases: in vivo
Plutella xylostella = assay: Diamond back moth (Plutella xylostella), dipped Chinese cabbage leaves; conditions: 300 ppm, mortality recorded 24, 72, and 120 hours after treatment
Procedure: If not otherwise specified the test solutions were prepared as follow:
The active compound was dissolved at the desired concentration in a mixture of 1:1 (vol:vol) distilled water:acteon. The test solution was prepared at the day of use and in general at concentrations of ppm (wt/vol).
B.1 Diamond Back Moth (Plutella xylostella)
Leaves of Chinese cabbage were dipped in test solution and air-dried. Treated leaves were placed in petri dished lined with moist filter paper. Mortality was recorded 24, 72, and 120 hours after treatment.

Spodoptera eridania = assay: Southern armyworm (Spodoptera eridania), sprayed lima bean plants; conditions: Spodoptera eridania larvae; 300 ppm; 4 days after treatment
Procedure: B.4 Southern Armyworm (Spodoptera eridania)
(§1) The active compounds were formulated in cyclohexanone as a 10,000 ppm solution supplied in tubes. The tubes were inserted into an automated electrostatic sprayer equipped with an atomizing nozzle and they served as stock solutions for which lower dilutions were made in 50% acetone:50% water (v/v). A nonionic surfactant (Kinetic®) was included in the solution at a volume of 0.01% (v/v).
(§2) Lima bean plants (variety Sieva) were grown 2 plants to a pot and selected for treatment at the 1st true leaf stage. Test solutions were sprayed onto the foliage by an automated electrostatic plant sprayer equipped with an atomizing spray nozzle. The plants were dried in the sprayer fume hood and then removed from the sprayer. Each pot was placed into perforated plastic bags with a zip closure. About 10 to 11 armyworm larvae were placed into the bag and the bags zipped closed. Test plants were maintained in a growth room at about 25° C. and about 20-40% relative humidity for 4 days, avoiding direct exposure to fluorescent light (24 hour photoperiod) to prevent trapping of heat inside the bags. Mortality and reduced feeding were assessed 4 days after treatment, compared to untreated control plants.

Ceratitis capitata = assay: Mediterranean fruitfly (Ceratitis capitata), microtiter plate with insect diet and eggs; conditions: 2500 ppm, egg and larval mortality after 5 days
Procedure: B.2 Mediterranean Fruitfly (Ceratitis capitata)
For evaluating control of Mediterranean fruitfly (Ceratitis capitata) the test unit consisted of microtiter plates containing an insect diet and 50-80 C. capitata eggs.
The compounds were formulated using a solution containing 75% v/v water and 25% v/v DMSO. Different concentrations of formulated compounds were sprayed onto the insect diet at 5 μl, using a custom built micro atomizer, at two replications. After application, microtiter plates were incubated at about 28±1° C. and about 80±5% relative humidity for 5 days. Egg and larval mortality was then visually assessed.

Myzus persicae = assay: Green peach aphid (Myzus persicae), artificial diet under membrane, systemic; conditions: Myzus persicae adults; 2500 ppm; 3 days
Source text: B.8 Green Peach Aphid (Myzus Persicae)
For evaluating control of green peach aphid (Myzus persicae) through systemic means the test unit consisted of 96-well-microtiter plates containing liquid artificial diet under an artificial membrane.
The compounds were formulated using a solution containing 75% v/v water and 25% v/v DMSO. Different concentrations of formulated compounds were pipetted into the aphid diet, using a custom built pipetter, at two replications.
After application, 5-8 adult aphids were placed on the artificial membrane inside the microtiter plate wells. The aphids were then allowed to suck on the treated aphid diet and incubated at about 23±1° C. and about 50±5% relative humidity for 3 days. Aphid mortality and fecundity was then visually assessed.

Heliothis virescens = assay: Tobacco budworm (Heliothis virescens) I, sprayed cotton plants; conditions: Heliothis virescens larvae; 2500 ppm; 4 days after treatment
Procedure: B.6 Tobacco Budworm (Heliothis virescens) I
as §1
as §2, with “Cotton” for “Lima bean”, “plants” for “plants (variety Sieva)”, “cotyledon” for “1st true leaf”, “budworm” for “armyworm”

Anthonomus grandis = assay: Boll weevil (Anthonomus grandis), microtiter plate with insect diet and eggs; conditions: 2500 ppm, egg and larval mortality after 5 days
Procedure: B.7 Boll Weevil (Anthonomus grandis)
For evaluating control of boll weevil (Anthonomus grandis) the test unit consisted of 24-well-microtiter plates containing an insect diet and 20-30 A. grandis eggs.
The compounds were formulated using a solution containing 75% v/v water and 25% v/v DMSO. Different concentrations of formulated compounds were sprayed onto the insect diet at 20 μl, using a custom built micro atomizer, at two replications.
After application, microtiter plates were incubated at about 23±1° C. and about 50±5% relative humidity for 5 days. Egg and larval mortality was then visually assessed.

Bemisia argentifolii = assay: Silverleaf whitefly (Bemisia argentifolii), sprayed cotton plants; conditions: Bemisia argentifolii adults; 300 ppm; 3 days after treatment
Source text: B.3 Silverleaf Whitefly (Bemisia argentifolii)
as §1
Cotton plants at the cotyledon stage (one plant per pot) were sprayed by an automated electrostatic plant sprayer equipped with an atomizing spray nozzle. The plants were dried in the sprayer fume hood and then removed from the sprayer. Each pot was placed into a plastic cup and about 10 to 12 whitefly adults (approximately 3-5 days old) were introduced. The insects were collected using an aspirator and a nontoxic Tygon® tubing connected to a barrier pipette tip. The tip, containing the collected insects, was then gently inserted into the soil containing the treated plant, allowing insects to crawl out of the tip to reach the foliage for feeding. Cups were covered with a reusable screened lid. Test plants were maintained in a growth room at about 25° C. and about 20-40% relative humidity for 3 days, avoiding direct exposure to fluorescent light (24 hour photoperiod) to prevent trapping of heat inside the cup. Mortality was assessed 3 days after treatment, compared to untreated control plants.

Megoura viciae = assay: Vetch aphid (Megoura viciae), broad bean leaf disks in microtiter plates; conditions: Megoura viciae adults; 2500 ppm; 5 days
Procedure: B.5 Vetch aphid (Megoura viciae)
For evaluating control of vetch aphid (Megoura viciae) through contact or systemic means the test unit consisted of 24-well-microtiter plates containing broad bean leaf disks.
The compounds were formulated using a solution containing 75% v/v water and 25% v/v DMSO. Different concentrations of formulated compounds were sprayed onto the leaf disks at 2.5 μl, using a custom built micro atomizer, at two replications. After application, the leaf disks were air-dried and 5-8 adult aphids placed on the leaf disks inside the microtiter plate wells. The aphids were then allowed to suck on the treated leaf disks and incubated at about 23±1° C. and about 50±5% relative humidity for 5 days. Aphid mortality and fecundity was then visually assessed.

Measured: mortality in comparison with untreated controls

CCN(CC)C(=O)CC(=O)c1ccc(C2=NOC(c3cc(Cl)cc(Cl)c3)(C(F)(F)F)C2)cc1C (stereo not drawn) [Compound 1-22]
at least 75%: Plutella xylostella | Spodoptera eridania

Cc1cc(C2=NOC(c3cc(Cl)cc(Cl)c3)(C(F)(F)F)C2)ccc1C(=O)CCC(F)(F)F (stereo not drawn) [Compound 1-16]
at least 75%: Plutella xylostella | Spodoptera eridania

Cc1cc(C2=NOC(c3cc(Cl)cc(Cl)c3)(C(F)(F)F)C2)ccc1C(=O)C(=CN(C)C)C(=O)NCC(F)(F)F (stereo not drawn) [Compound 1-58]
not listed: Bemisia argentifolii | Megoura viciae
at least 75%: all other assays above

CCN(C)C(=O)CCC(=O)c1ccc(C2=NOC(c3cc(Cl)cc(Cl)c3)(C(F)(F)F)C2)cc1C (stereo not drawn) [Compound 1-36]
at least 75%: Plutella xylostella | Spodoptera eridania | Bemisia argentifolii

Cc1cc(C2=NOC(c3cc(Cl)cc(Cl)c3)(C(F)(F)F)C2)ccc1C(=O)CC(=O)NC(C)C1CC1 (stereo not drawn) [Compound 1-44]
at least 75%: Plutella xylostella | Spodoptera eridania | Bemisia argentifolii

Cc1cc(C2=NOC(c3cc(Cl)cc(Cl)c3)(C(F)(F)F)C2)ccc1C(=O)CC(=O)NCC1CC1 (stereo not drawn) [Compound 1-45]
not listed: Bemisia argentifolii
at least 75%: all other assays above

CCOC(=O)CC(=O)c1ccc(C2=NOC(c3cc(Cl)cc(Cl)c3)(C(F)(F)F)C2)cc1C (stereo not drawn) [Compound 1-3]
at least 75%: Ceratitis capitata | Myzus persicae | Heliothis virescens | Anthonomus grandis

COC(=O)C(=O)c1ccc(C2=NOC(c3cc(Cl)cc(Cl)c3)(C(F)(F)F)C2)cc1C (stereo not drawn) [Compound 1-18]
at least 75%: Ceratitis capitata | Myzus persicae

COC(=O)C(C)(C)C(=O)c1ccc(C2=NOC(c3cc(Cl)cc(Cl)c3)(C(F)(F)F)C2)cc1C (stereo not drawn) [Compound 1-5]
at least 75%: Spodoptera eridania

Cc1cc(C2=NOC(c3cc(Cl)cc(Cl)c3)(C(F)(F)F)C2)ccc1C(=O)C(C)C (stereo not drawn) [Compound 1-6]
at least 75%: Ceratitis capitata

COC(=O)C(=CNCC(F)(F)F)C(=O)c1ccc(C2=NOC(c3cc(Cl)cc(Cl)c3)(C(F)(F)F)C2)cc1C (stereo not drawn) [Compound 1-48]
at least 75%: Ceratitis capitata | Plutella xylostella

Cc1cc(C2=NOC(c3cc(Cl)cc(Cl)c3)(C(F)(F)F)C2)ccc1C(=O)CC(=O)NCC(F)(F)F (stereo not drawn) [Compound 1-43]
at least 75%: Plutella xylostella | Spodoptera eridania

Cc1cc(C2=NOC(c3cc(Cl)cc(Cl)c3)(C(F)(F)F)C2)ccc1C(=O)CCCC(F)(F)F (stereo not drawn) [Compound 1-27]
at least 75%: Plutella xylostella | Spodoptera eridania | Bemisia argentifolii

Cc1cc(C2=NOC(c3cc(Cl)cc(Cl)c3)(C(F)(F)F)C2)ccc1C(=O)CCC(=O)NCC1CC1 (stereo not drawn) [Compound 1-32]
not listed: Bemisia argentifolii
at least 75%: all other assays above

Cc1cc(C2=NOC(c3cc(Cl)cc(Cl)c3)(C(F)(F)F)C2)ccc1C(=O)CC(=O)NC(C)C (stereo not drawn) [Compound 1-42]
at least 75%: Plutella xylostella | Spodoptera eridania | Bemisia argentifolii

COC(=O)CCCC(=O)c1ccc(C2=NOC(c3cc(Cl)cc(Cl)c3)(C(F)(F)F)C2)cc1C (stereo not drawn) [Compound 1-61]
at least 75%: Heliothis virescens | Anthonomus grandis

Cc1cc(C2=NOC(c3cc(Cl)cc(Cl)c3)(C(F)(F)F)C2)ccc1C(=O)CC(=O)N(C)C (stereo not drawn) [Compound 1-41]
at least 75%: Plutella xylostella | Spodoptera eridania | Bemisia argentifolii

Cc1cc(C2=NOC(c3cc(Cl)cc(Cl)c3)(C(F)(F)F)C2)ccc1C(=O)CS(C)(=O)=O (stereo not drawn) [Compound 1-47]
at least 75%: Plutella xylostella | Spodoptera eridania

Cc1cc(C2=NOC(c3cc(Cl)cc(Cl)c3)(C(F)(F)F)C2)ccc1C(=O)CCCC(=O)NC(C)C (stereo not drawn) [Compound 1-57]
not listed: Heliothis virescens
at least 75%: all other assays above

CCNC(=O)CC(=O)c1ccc(C2=NOC(c3cc(Cl)cc(Cl)c3)(C(F)(F)F)C2)cc1C (stereo not drawn) [Compound 1-28]
at least 75%: Plutella xylostella | Spodoptera eridania

Cc1cc(C2=NOC(c3cc(Cl)cc(Cl)c3)(C(F)(F)F)C2)ccc1C(=O)CCC1CC1 (stereo not drawn) [Compound 1-35]
at least 75%: Plutella xylostella | Spodoptera eridania
